Experiment [1] deals with RIPK3, human (human (endogenous in Jurkat and HT29)) (UniProt Q9Y572). Kind of experiment: co-IP; HT29 cells stimulated by TNFα/SM-164/zVAD.fmk, no inhibitor (Supplementary Fig. S2b); told only as 'a consistent result'; details not shown.
Experiment [2] shares this target. The experiment is described as follows: co-IP; FADD-deficient Jurkat cells, 50 ng/mL TNFα for the indicated times, no inhibitor; 0.5% Nonidet P-40 buffer; IP with anti-RIPK3 antibody; western blot.
The target of experiment [3] is Flag-TNFα (UniProt P01375). Kind of experiment: co-IP; L929 cells given 100 ng/mL Flag-TNFα for the indicated times, with or without 30 min pretreatment with 10 μM Nec-1s or Nec-34; lysed in 0.5% Nonidet P-40 buffer; anti-Flag antibody-conjugated agarose; western blot; only the target purified. (Immunoblotting shows a protein as a band on a membrane.)

By UniProt entry, the sequences of proteins in these tests, tags left out. Where a name states a change or a piece, a line headed by the entry shows the natural chain unless it says otherwise. Residues count along the entry.
UniProt Q9Y572: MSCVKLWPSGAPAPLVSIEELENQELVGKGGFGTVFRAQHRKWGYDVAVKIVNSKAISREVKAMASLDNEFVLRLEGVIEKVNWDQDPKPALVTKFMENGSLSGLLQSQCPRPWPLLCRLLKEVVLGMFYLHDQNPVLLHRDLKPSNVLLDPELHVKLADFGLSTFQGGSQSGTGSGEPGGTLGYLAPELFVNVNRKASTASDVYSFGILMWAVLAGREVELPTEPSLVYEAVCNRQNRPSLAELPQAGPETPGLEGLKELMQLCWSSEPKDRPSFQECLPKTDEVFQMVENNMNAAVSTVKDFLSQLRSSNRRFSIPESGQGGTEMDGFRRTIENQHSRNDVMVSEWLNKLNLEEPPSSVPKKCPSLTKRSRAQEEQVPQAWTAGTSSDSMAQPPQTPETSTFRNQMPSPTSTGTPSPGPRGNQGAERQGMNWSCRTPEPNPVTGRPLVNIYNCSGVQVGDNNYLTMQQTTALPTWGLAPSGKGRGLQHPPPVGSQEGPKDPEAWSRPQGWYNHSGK
UniProt P01375, residues 77-233: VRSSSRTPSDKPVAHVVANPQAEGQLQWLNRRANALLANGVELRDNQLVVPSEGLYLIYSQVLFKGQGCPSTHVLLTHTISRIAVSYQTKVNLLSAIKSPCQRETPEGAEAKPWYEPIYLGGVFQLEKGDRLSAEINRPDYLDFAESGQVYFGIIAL
UniProt Q13546: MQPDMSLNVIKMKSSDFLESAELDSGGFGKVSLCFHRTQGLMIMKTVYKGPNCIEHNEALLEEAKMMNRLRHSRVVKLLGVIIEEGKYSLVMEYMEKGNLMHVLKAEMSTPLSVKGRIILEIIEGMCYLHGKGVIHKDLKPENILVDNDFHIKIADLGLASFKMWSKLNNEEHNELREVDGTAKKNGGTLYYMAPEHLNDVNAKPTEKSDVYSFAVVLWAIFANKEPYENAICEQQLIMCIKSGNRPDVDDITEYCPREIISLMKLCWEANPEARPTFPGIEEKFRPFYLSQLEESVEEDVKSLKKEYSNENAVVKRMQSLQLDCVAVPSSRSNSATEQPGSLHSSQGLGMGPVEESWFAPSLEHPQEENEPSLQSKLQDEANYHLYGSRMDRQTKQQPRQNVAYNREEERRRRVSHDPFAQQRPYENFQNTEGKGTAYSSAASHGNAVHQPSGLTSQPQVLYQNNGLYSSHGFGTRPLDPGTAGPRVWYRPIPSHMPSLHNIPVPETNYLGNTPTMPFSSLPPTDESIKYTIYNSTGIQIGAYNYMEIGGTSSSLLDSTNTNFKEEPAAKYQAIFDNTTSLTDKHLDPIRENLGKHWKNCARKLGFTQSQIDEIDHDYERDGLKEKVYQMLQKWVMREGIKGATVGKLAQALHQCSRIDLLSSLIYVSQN
UniProt Q60680: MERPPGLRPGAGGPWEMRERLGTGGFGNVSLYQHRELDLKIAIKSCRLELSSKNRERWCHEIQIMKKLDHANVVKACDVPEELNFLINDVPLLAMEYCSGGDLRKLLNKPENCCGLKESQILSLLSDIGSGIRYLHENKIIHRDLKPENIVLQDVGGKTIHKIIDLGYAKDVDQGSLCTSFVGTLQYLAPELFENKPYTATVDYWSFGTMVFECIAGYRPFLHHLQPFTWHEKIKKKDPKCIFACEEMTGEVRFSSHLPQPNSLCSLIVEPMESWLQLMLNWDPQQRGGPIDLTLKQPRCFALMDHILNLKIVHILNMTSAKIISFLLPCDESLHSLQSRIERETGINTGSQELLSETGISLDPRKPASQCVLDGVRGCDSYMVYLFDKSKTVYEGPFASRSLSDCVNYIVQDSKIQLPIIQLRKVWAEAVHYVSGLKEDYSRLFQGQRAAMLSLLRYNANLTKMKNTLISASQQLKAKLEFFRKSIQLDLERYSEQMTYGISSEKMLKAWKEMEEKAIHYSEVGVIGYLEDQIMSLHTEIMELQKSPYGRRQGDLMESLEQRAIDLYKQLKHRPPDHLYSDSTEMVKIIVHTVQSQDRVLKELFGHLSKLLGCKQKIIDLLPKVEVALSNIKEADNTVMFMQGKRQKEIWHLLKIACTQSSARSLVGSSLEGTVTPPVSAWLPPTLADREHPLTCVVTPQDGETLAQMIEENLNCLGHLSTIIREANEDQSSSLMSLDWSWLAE

These are yes or no findings as the source states them, for the method shown. Binding seen in cells or lysates may run through a third protein. Some entries that bind do so weakly or less than the wild type.

Two substances from publication PMC8169668, “Discovery of a cooperative mode of inhibiting RIPK1 kinase” (Cell Discovery, 2021) can be followed below.

On to “receptor-interacting protein kinase 1 (RIPK1), human (from UniProt Q13546 1-671)”, for which the binding entry in experiment [1] and in experiment [2] was “binds” throughout.
For “IKKα/β (inhibitor of nuclear factor κ-B kinase subunit α/β), mouse (from UniProt Q60680 1-745; O88351 1-757) (complex)”, the binding result in experiment [3] is “binds”.
